Laboratory results taken from patent CN105461808A.
Results are given in words; binding and its absence hold for the method and conditions named. Some results given as binding are weak or reduced against the parent protein; the word gives no strength.

Amino acid sequences for entries named in this document (tags omitted). Residues count along the entry.
UniProt Q9NZQ7, residues 19-290: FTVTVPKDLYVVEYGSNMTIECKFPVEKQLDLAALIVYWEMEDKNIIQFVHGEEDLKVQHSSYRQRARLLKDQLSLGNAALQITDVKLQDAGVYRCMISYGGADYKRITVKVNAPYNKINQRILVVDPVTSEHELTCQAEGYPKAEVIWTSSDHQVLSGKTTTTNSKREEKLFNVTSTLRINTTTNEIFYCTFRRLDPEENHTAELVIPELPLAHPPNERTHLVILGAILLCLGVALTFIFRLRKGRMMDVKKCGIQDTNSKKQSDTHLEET

Key:
[1] = target: HCC827细胞表面PDL-1 (UniProt Q9NZQ7); test: flow cytometry on cells (legend of Fig. 8)
[2] = target: HCC827细胞表面PDL-1 (UniProt Q9NZQ7); test: flow cytometry on cells

Binder | binding [1] | binding [2]
H017-6F11.3.2 (antibody, mouse IgG2b, V domains shown) VH: EVQLQQSGAELVKPGASVKLSCTASGFNIKDTYIHWMRQRPEQGLEWIGRIDPANDNTKYDPKFQGKATVTADTSSNTAYLQLSSLTSEDTAVYYCARGLRLRYFDVWGAGTTVTVSS VL: DIQMTQTPSSLSASLGGKVTITCKASQDIHKYIAWYQHKPGKGPRLLIHYTSTLQPGIPSRFSGSGSGRDFSFSISNLEPEDFETYYCLQYENLLPTFGGGTKLEIK | binds | binds
H017-9C10.2.8 (antibody, mouse IgG1, V domains shown) VH: QVQLKQSGFGLVLPSQSLSITCTVSGFSLTSYGVHWVRQSPGKGLEWLGLIWSGGGTDYNAAFISRLSISKDNSKSQVFFKINSLQANDTAIYYCARQLGLRAMDYWGQGTSVTVSS VL: DILLTQSPAILSVSPGERVSFSCRASQSIGTTIHWYQQRTNGSPRLLIKYASESVSGIPSRFSGSGSGTDFTLSINSVESEDIADYYCQQSNSWPLTFGAGTKLEIK | binds | binds
H018-17B5.5.1 (antibody, mouse IgG1, V domains shown) VH: QVQLQQSGAELMKPGASVKISCKATGYKFSSYWIEWVKQRPGHGLEWIGEILPGSGNPNYDEKFKGKATFTADTSSNTAYMQLSSLTSEDSAVYYCARERWMDSWGQGTSVTVSS VL: DIQMTQTASSLSASLGDRVTISCSASQGIFNYLNWYQQKPDGTVTVLIYYTSRLHSGVPSRFSGSGSGTDYSLTISNLEPEDIATYYCQQYSKLPYTFGGGTKLEIKR | binds | binds
